The list shows only some results of the screen, not a fair sample: it gathers tests that were run many times, whatever their T/C, doses with no T/C, and many T/C values between a quarter and a half above the control. Further doses and runs are listed elsewhere. T/C: endpoint of the treated group in % of that of the vehicle group. Some entries give survivors of the animals treated and no T/C: the source holds a T/C of zero for them, seemingly a mark for toxic or unscored doses. Some doses without a T/C left all or most animals alive at the check, yet need not have been tolerated: the source hardly ever lists a survival T/C far under the control, and the zero likely stands for such cases as well. Counts of survivors are from the toxicity check (mostly the fifth day) where no day follows; animals may have died later. Schedules are NCI's codes, read here as Q, the interval in days (D) or hours (H), X, the number of doses. Some schedule codes hold Z or #, which are not explained here. Where survival is the endpoint, the PubChem record calls one and a half times the control and up active, and a quarter to a half above the control has no call in these data; cut-offs in other NCI protocols can differ. Counts like (3×) count equal records among those shown. Some entries hold several experiments; the values are given in rising order. Some T/C values carry the count of animals alive at the toxicity check (mostly the fifth day); where none is given, no animal had died by that day.
Test system: L1210 leukemia ip in BDF1 mice, survival T/C
Assay: NCI In Vivo Anticancer Drug Screen. Data for tumor model L1210 Leukemia (intraperitoneal) in B6D2F1 (BDF1) mice
Details: T/C endpoint: mean survival time, higher T/C = longer survival
[1] = dose: 100.0 mg/kg/injection, schedule: Q01DX001 (ip), vehicle: saline
[2] = dose: 200.0 mg/kg/injection, schedule: Q04DX003 (ip), vehicle: saline
[3] = dose: 400.0 mg/kg/injection, schedule: Q04DX003 (ip), vehicle: saline
[4] = dose: 400.0 mg/kg/injection, schedule: Q04DX003 (ip), vehicle: Klucel (hydroxypropylcellulose) (HPC)

CS(=O)(=O)OCCC(=O)N1CCN(C(=O)CCOS(C)(=O)=O)CC1
T/C (dose: 12.5 mg/kg/injection, schedule: Q01DX Z (ip), vehicle: methylcellulose (MC)): 137 % of control | T/C (dose: 15.6 mg/kg/injection, schedule: Q01DX Z (ip), vehicle: methylcellulose (MC)): 129 % of control | survivor count (dose: 16.0 mg/kg/injection, schedule: Q01DX002 (ip), vehicle: saline): 6 of 6 | T/C (dose: 25.0 mg/kg/injection, schedule: Q01DX Z (ip), vehicle: methylcellulose (MC)): 138 % of control | T/C (dose: 50.0 mg/kg/injection, schedule: Q01DX001 (ip), vehicle: carboxymethylcellulose (CMC)): 134 [5 of 6 alive] and 137 % of control | T/C (dose: 50.0 mg/kg/injection, schedule: Q01DX Z (ip), vehicle: methylcellulose (MC)): 158, 162, 164, 226 % of control | T/C (dose: 62.0 mg/kg/injection, schedule: Q01DX002 (ip), vehicle: saline): 125 % of control (2×) | T/C (dose: 76.0 mg/kg/injection, schedule: Q01DX Z (ip), vehicle: methylcellulose (MC)): 142 % of control | T/C [1]: 136 % of control | T/C (dose: 100.0 mg/kg/injection, schedule: Q01DX Z (ip), vehicle: methylcellulose (MC)): 135 % of control | T/C (dose: 113.0 mg/kg/injection, schedule: Q01DX Z (ip), vehicle: methylcellulose (MC)): 141 % of control (2×) | T/C (dose: 125.0 mg/kg/injection, schedule: Q01DX002 (ip), vehicle: saline): 130 and 139 % of control | T/C (dose: 125.0 mg/kg/injection, schedule: Q01DX Z (ip), vehicle: methylcellulose (MC)): 143 % of control | T/C (dose: 170.0 mg/kg/injection, schedule: Q01DX Z (ip), vehicle: methylcellulose (MC)): 131 % of control | survivor count (dose: 200.0 mg/kg/injection, schedule: Q01DX Z (ip), vehicle: methylcellulose (MC)): 6 of 7 | T/C [2]: 134 % of control | survivor count (dose: 250.0 mg/kg/injection, schedule: Q01DX Z (ip), vehicle: methylcellulose (MC)): 6 of 6 | survivor count (dose: 300.0 mg/kg/injection, schedule: Q01DX Z (ip), vehicle: methylcellulose (MC)): 6 of 7 | survivor count (dose: 400.0 mg/kg/injection, schedule: Q01DX Z (ip), vehicle: methylcellulose (MC)): 6 of 7 | survivor count [3]: 3 of 4 | survivor count (dose: 500.0 mg/kg/injection, schedule: Q01DX Z (ip), vehicle: methylcellulose (MC)): 4 of 7

O=C([O][Hg][C](F)(F)F)C(F)(F)F
survivor count (dose: 25.0 mg/kg/injection, schedule: Q04DX003 (ip), vehicle: saline with Tween-80): 0 of 3 | survivor count (dose: 50.0 mg/kg/injection, schedule: Q04DX003 (ip), vehicle: saline with Tween-80): 0 of 3 | survivor count (dose: 100.0 mg/kg/injection, schedule: Q04DX003 (ip), vehicle: saline with Tween-80): 0 of 3

CCC(/C=N/N=C(N)N)OC (stereo not drawn)
survivor count (dose: 15.0 mg/kg/injection, schedule: Q01DX Z (ip), vehicle: saline): 3 of 6 | survivor count (dose: 30.0 mg/kg/injection, schedule: Q01DX Z (ip), vehicle: saline): 0 of 6 | survivor count (dose: 60.0 mg/kg/injection, schedule: Q01DX Z (ip), vehicle: saline): 0 of 6 | survivor count (dose: 120.0 mg/kg/injection, schedule: Q01DX Z (ip), vehicle: saline): 0 of 6 | survivor count (dose: 512.0 mg/kg/injection, schedule: Q01DX Z (oral), vehicle: saline): 3 of 6 | survivor count (dose: 1024.0 mg/kg/injection, schedule: Q01DX Z (oral), vehicle: saline): 0 of 6

O=C(COc1cccc(Cl)c1Cl)Nc1ccc[n+](Cc2ccc(S(=O)(=O)F)cc2)c1
survivor count [4]: 1 of 6

O=NN(CCCl)C(=O)NC(Cc1ccccc1)C(=O)O (stereo not drawn)
T/C (dose: 18.0 mg/kg/injection, schedule: Q01DX001 (ip), vehicle: gum acacia): 134 % of control | survivor count (dose: 266.0 mg/kg/injection, schedule: Q01DX001 (ip), vehicle: gum acacia): 5 of 10 | survivor count (dose: 400.0 mg/kg/injection, schedule: Q01DX001 (ip), vehicle: gum acacia): 1 of 10

Cc1cc(C)c2c(C#N)cn(-c3ccc([N+](=O)[O-])cc3)c2n1
survivor count [1]: 3 of 3

O=C(C[n+]1cccc(CO)c1)c1ccccc1
survivor count (dose: 100.0 mg/kg/injection, schedule: Q04DX003 (ip), vehicle: saline): 0 of 6 | survivor count [2]: 0 of 6 | survivor count [3]: 0 of 6

CCSP(N)(=O)c1ccccc1 (stereo not drawn)
survivor count (dose: 150.0 mg/kg/injection, schedule: Q01DX001 (ip), vehicle: saline): 0 of 6 | survivor count (dose: 300.0 mg/kg/injection, schedule: Q01DX001 (ip), vehicle: saline): 0 of 6

CC(=NC(c1ccccc1)c1ccccc1)N(C)C
survivor count (dose: 200.0 mg/kg/injection, schedule: Q04DX002 (ip), vehicle: saline with Tween-80): 0 of 3 | survivor count (dose: 400.0 mg/kg/injection, schedule: Q04DX002 (ip), vehicle: saline with Tween-80): 0 of 3

Cc1cc(S(=O)(=O)F)ccc1NC(=O)NCc1ccc([N+](=O)[O-])cc1Cl
survivor count [4]: 0 of 6

Reference: PubChem BioAssay AID248 (DTP/NCI, 2004)
